In patent publication US10048278B2, “Screening for neurotoxic amino acid associated with neurological disorders” (priority 2003, dated 2018):
Like-named read-outs stand apart in the source and are kept apart here.

Design: species or system Cycas micronesica Hill; key: † = trace amounts; — = not detectable
[1] = seed sarcotesta, outer integument layer
[2] = root, coralloid, heavy infection
[3] = roots, coralloid, senescent infection

| SMILES | mean concentration in tissue (female sporophyll) | mean concentration in tissue (leaf mucilage) | presence of HPLC peak, not quantified (Leaf) | presence of HPLC peak, not quantified (female sporophyll) | presence of HPLC peak, not quantified (male sporangia, mature) | presence of HPLC peak, not quantified [2] | presence of HPLC peak, not quantified (seed gametophyte) | presence of HPLC peak, not quantified (seed sarcotesta) | presence of HPLC peak, not quantified [1] | also measured |
| --- | --- | --- | --- | --- | --- | --- | --- | --- | --- | --- |
| N[C@@H](CCC(=O)O)C(=O)O [GLU, glutamic acid] | — | — |  |  |  |  |  |  |  | mean concentration in tissue (male sporangia, mature): —; mean concentration in tissue (seed sarcotesta): —; mean concentration in tissue [1]: — |
| N[C@@H](CNC(=O)C(=O)O)C(=O)O [BOAA, β-N-oxalyl-amino-L-alanine] |  |  | † | — | † | † | † | — | † | presence of HPLC peak, not quantified (leaf mucilage): —; presence of HPLC peak, not quantified (male sporangia, immature): †; presence of HPLC peak, not quantified (male sporophyll, immature): —; presence of HPLC peak, not quantified (male sporophyll, mature): —; presence of HPLC peak, not quantified (root, coralloid, mild infection): †; presence of HPLC peak, not quantified (root, coralloid, non-infected): †; presence of HPLC peak, not quantified (root, non-coralloid): †; presence of HPLC peak, not quantified [3]: —; presence of HPLC peak, not quantified (stem, inner cortex): —; presence of HPLC peak, not quantified (stem, outer cortex): —; presence of HPLC peak, not quantified (stem, xylem): — |
| NCCC(N)C(=O)O (stereo not shown) [DAB, 2,4-diamino butyrate] |  |  | † | † | † |  | — | — | — |  |
| NCC(N)C(=O)O (stereo not shown) [DAP, 2,3-diaminopropionate] |  |  |  |  | † | † | — | — | — |  |
| CNC[C@H](N)C(=O)O [BMAA, β-N-methylamino-L-alanine] | — | — |  |  |  |  |  |  |  | mean concentration in tissue (male sporophyll, mature): —; mean concentration in tissue (root, coralloid, non-infected): —; mean concentration in tissue (root, non-coralloid): —; mean concentration in tissue [3]: —; mean concentration in tissue (stem, inner cortex): —; mean concentration in tissue (stem, outer cortex): —; mean concentration in tissue (stem, xylem): — |
